Results taken from patent US11278589B2, “Use of a cyclic tripeptide for improving cellular energy metabolism” (ASSISTANCE PUBLIQUE—HOPITAUX DE PARIS, priority 2015, dated 2022).
“And” between values parts separate entries of the source, which are not always exact repeats. Equal values may be shown once. At least one peptide structure holds a part that was inferred or is arguable (an end, a ring closure or a residue). Positions of bridges follow the written chain, without caps; N, C: chain ends. Residues, ends and D or L forms follow the SMILES beside them.

Key:
[1] = system: spermatozoa from human beings; test: Automated analysis of sperm movement parameters (CASA); assay type: cell-based
[2] = system: spermatozoa from human beings; test: Measurement of the mitochondrial membrane potential (DIOC6, flow cytometry); assay type: cell-based; details: 3 h at 37° C., compared with the scramble peptide
[3] = system: Human oocytes with the pellucida removed incubated with human spermatozoa; test: Measurement of the fertilization index (fused spermatozoa, Hoechst 33342); assay type: cell-based; details: FEEc at 100 μM
[4] = system: sperms; test: 18-hour survival test of sperms; assay type: cell-based, human; details: 100 μM, compared with the control
[5] = system: immature human oocytes at the GV stage; test: In vitro maturation (IVM) of immature human oocytes; assay type: cell-based; details: for oocytes in metaphase II (MII) at D1: 100 μM; for oocyte atresia rate: D1, 100 μM
[6] = system: Human oocytes; test: Randomized prospective study in human IVF (fertilin study); assay type: in vivo
Text: A clinical trial was begun in the IVF laboratory of the MAP Center of Cochin, on Sep. 8, 2014, on 66 couples, the average age being 34.3±4.2 years old for the women and 37.0±5.2 for their partners. It is a randomized, single-center prospective study of in vitro fertilization (IVF) carried out in the presence or absence of FEEc. The oocytes, recovered from their cumulus, were divided up into two groups alternately into one and then into the other according to their order of recovery. When all the oocytes were recovered, a technician who had not participated in the recovery of the cumuli determined by randomization which of the two groups was inseminated in the presence of FEEc and which served as control. One part of the oocytes is incubated in the standard culture medium (Global, JCD), the other part in this same medium supplemented with 100 μM FEEc.
The methodology of this study, represented diagrammatically in FIG. 9, is presented below. Human oocytes originating from women 18 to 43 years old were recovered by ovarian puncture after hormonal stimulation by gynecologists. They were divided up in a randomized manner into 2 groups: the oocytes incubated in the presence of a standard culture medium supplemented with 100 μM FEEc or of a standard culture medium (Global, JCD), then placed in an incubator at 37° C. under an atmosphere of 5% of CO2. The partner's spermatozoa were recovered in the laboratory and the most mobile selected according to a standard preparation of the MAP centers. The IVF consists in bringing the spermatozoa into contact with the oocytes in the insemination medium at a concentration of 10^5 spermatozoa selected/ml in drops of 20 microliters under oil. The insemination is carried out in an incubator at 37° C. under 5% of CO2 for 18 hours. 18 h after the insemination (D1), the corona is removed from the oocytes. The fertilized oocytes are washed and transferred into another drop of medium and placed in culture for a further 24 h. At the time of the transfer in utero, they are washed three times, then placed in a transfer medium and placed in the uterine cavity. The embryos are transferred according to their apparent quality without paying any attention to the group of origin. One or more embryos are transferred according to the age, the indication of the IVF, the attempt rank and the quality of the embryos obtained, and with the agreement of the couples. Some embryos may be placed in prolonged culture over the course of 5 days (at the blastocyst stage) either immediately, or after transfer of embryos at D2.
The main evaluation criterion is the clinical pregnancy rate by transfer of fresh or frozen embryos and the miscarriage rate taking into account the 3 groups: homogeneous transfers (controls and treated) and mixed transfers (mixture of the two).
The secondary criteria are: • The fertilization rate, i.e. the ratio of the number of zygotes having two pronuclei in the cytoplasm, 18 hours after insemination, relative to the number of ooctyes in metaphase 2 in the cohort. • The percentage of embryos of good quality, i.e. of embryos of which the cleavage sequence corresponds to the ideal sequence, that is to say: 4 to 5 cells at D2 and 8 to 9 cells at D3 and of which the blastomer fragmentation is of type A (when the volume occupied by the fragments is less than 10% of the embryonic volume) or B (when the volume occupied by the fragments is between 10% and 30% of the total volume of the embryo). Thus, these “Top” embryos correspond to the ratio of the number of embryos of each type relative to the total number of embryos for each group.

[7] = 100 μM peptide, 3 h at 37° C., 37 patients
[8] = versus scramble peptide control
[9] = versus scramble peptide control, listed as FEE

N[C@H]1CSSC[C@@H](C(=O)O)NC(=O)[C@H](CCC(=O)O)NC(=O)[C@H](CCC(=O)O)NC(=O)[C@H](Cc2ccccc2)NC(=O)[C@H](CO)NC1=O [FEEc, C-S-F-E-E-C] (H-CSFEEC-OH; disulfide 1-6)
ALH (lateral head displacement) [1, 7]: 6.6 ± 1.3 μm
BCF [1, 7]: 33.0 ± 3.9 Hz
Hyperactivation (hyperactivated spermatozoa, Mortimer criteria) [1, 7]: 15.9 ± 11.6
LIN [1, 7]: 50.9 ± 12.2%
STR [1, 7]: 84.9 ± 10.0%
VAP (average path velocity) [1, 7]: 86.3 ± 13.7 μm/s
VCL (curvilinear velocity) [1, 7]: 148.0 ± 26.6 μm/s
VSL (straight line velocity) [1, 7]: 71.8 ± 15.3 μm/s
increase in ALH (amplitude of lateral head displacement) versus control [1, 8]: 8%
increase in VAP versus control [1, 8]: 7%
increase in VCL versus control [1, 8]: 8%
increase in VSL (linear speed) versus control [1, 8]: 7%
increase in hyperactivated spermatozoa versus control [1, 8]: 29% and ~30%
increase in ALH (amplitude of lateral head displacement) versus control [1, 9]: 8%
increase in VSL (linear speed) versus control [1, 9]: 7%
increase in hyperactivated spermatozoa versus control [1, 9]: 29%
increase in mitochondrial membrane potential [2]: 21%
state of the fused sperm heads ([3]; contrary to control group): decondensed
spermatozoa fused by oocytes (mean) ([3]; control 19.0±4.6): 36.9±11.7
sperm survival [4]: significantly improved
oocytes in metaphase II (MII) at D1 ([5]; all human oocytes, 24 h of IVM, control 30.0%): 42.3%
oocyte atresia rate ([5]; all oocytes, control 16.8%): 16.5%
in vitro maturation of human oocytes blocked in the germinal vesicle ([5]; all patients (description summary), without FEEc 37.71%): 59.30%
oocytes in metaphase II (MII) at D1 ([5]; oocytes from women aged 37 and over, 24 h, control 20.4%): 47.9%
in vitro maturation of human oocytes blocked in the germinal vesicle ([5]; patients 37 years old or more (description summary), without FEEc 36.96%): 68.29%
oocyte atresia rate ([5]; women aged 37 and over, control 24.1%): 16.7%
rate of early spontaneous miscarriage ([6]; 1/9, control 37.5%): 11.1%
clinical pregnancies after transfer ([6]; 8/20 transfers, control 33.3% (8/24)): 40.0%
rate of clinical pregnancy ([6]; 66 couples, 54 transfers, 22 with FEE embryos, control 23%): 41%
Miscarriages (rate of spontaneous miscarriage) ([6]; 66 couples, 54 transfers, 22 with FEE embryos, control 33.3%): 1 (10.0%)
Miscarriages (rate of spontaneous miscarriage) ([6]; 66 couples, 54 transfers, 22 with FEE embryos, control 33.3%, listed as FEE): 10%
Pregnancy rate (cumulative pregnancy) ([6]; 66 couples, 54 transfers, 22 with FEE embryos, control 34.6%): 10 (45.5%)
Pregnancy rate (cumulative pregnancy) ([6]; 66 couples, 54 transfers, 22 with FEE embryos, control 34.6%, listed as FEE): 45.5%
Evolutive pregnancy rate ([6]; 66 patients, 51 transfers, 18 FEEc, control 23%): 41%
Miscarriages ([6]; 66 patients, 51 transfers, 18 FEEc, control 33%): 9% and 10%
Pregnancy rate ([6]; 66 patients, 51 transfers, 18 FEEc, control 34.6%): 45.5%
Pregnancy rate/transfer ([6]; Total, 66 couples, control 23%): 37.5%
Fertilization rate ([6]; all 66 couples, control 66.2%): 67.6%
Fertilization rate ([6]; all 66 couples, control 66.2%, listed as FEE): 67.6%
Evolutive pregnancy ([6]; all patients having had an embryo transfer, control 30.5%): 11(32.5%)
Spont. Miscar. ([6]; all patients having had an embryo transfer, control 33.3%): 2(15.4%)
Blast (%) ([6]; all patients having had an embryo transfer, control 37.1%): 37.7%
Fert. rate ([6]; all patients having had an embryo transfer, control 69.5%): 78.6%
Pregnancy n ([6]; all patients, 34 transfers, control 16 of 36): 13
Implant rate ([6]; all patients, 34 transfers, control 39.5%): 34(35.1%)
fertilization rates, FEEc versus control ([6]; first step, 56 couples, 100 μM): No significant difference
percentage of top-quality embryos, FEEc versus control ([6]; first step, 56 couples, 100 μM): No significant difference
pregnancy rate by transfer ([6]; first step, 56 couples, 13 transfers, control 29.4%): 46.1%
overall fertilization rates ([6]; overall results, 66 patients): virtually unmodified
Paucity of fertilization (attempts with less than 20% fertilization rate) ([6]; overall results, 66 patients, control 37.9%): 27.3%
Fert. rate ([6]; patients <37 years old (47 couples) with transfer, control 70.9%): 83.3%
Blast (%) ([6]; patients <37 years old with transfer, control 36.7%): 36.7%
Pregnancy n ([6]; patients <37 years old, 24 transfers, control 12 of 28): 11
Implant rate ([6]; patients <37 years old, 24 transfers, control 37.9%): 24(44.0%)
Evolutive pregnancy ([6]; patients <37 years old, control 28.6%): 10(41.6) ^ %
Spont. Miscar. ([6]; patients <37 years old, control 36.3%): 1(9.1%)
Pregnancy rate (per transfer; evolutive clinical pregnancy) ([6]; person's age 26-36 (<37), 47 couples, control 20.0%, listed as FEE): 57.1%
Fertilization rate ([6]; person's age 26-36 (<37), 47 couples, control 68.3%): 70.9%
Fertilization rate ([6]; person's age 26-36 (<37), 47 couples, control 68.3%, listed as FEE): 70.9%
Pregnancy rate (per transfer) ([6]; person's age 37-43, 19 couples, control 33%): 20.0%
Pregnancy rate (per transfer) ([6]; person's age 37-43, 19 couples, control 33%, listed as FEE): 10%
Fertilization rate ([6]; person's age 37-43, 19 couples, control 60.2%): 60.3%
increase in clinical pregnancies after transfer of an embryo from the FEEc group ([6]; versus control group): 21%
